Assay results from the supplement of paper PMC3334620.
Over roughly 33,000 sequences, “E-score (-0.5 to 0.5)” has its median near -0.0014; the highest 2% begin near 0.25. The list shows a part of the results.

target: T1, Cad1 (UniProt P24813); assay: PBM E-score (8-mer binding enrichment) (E-score (-0.5 to 0.5)); higher = stronger / more preferred TF binding; conditions: protein concentration: 100 nM; construct: GST-full length
T1 sequence: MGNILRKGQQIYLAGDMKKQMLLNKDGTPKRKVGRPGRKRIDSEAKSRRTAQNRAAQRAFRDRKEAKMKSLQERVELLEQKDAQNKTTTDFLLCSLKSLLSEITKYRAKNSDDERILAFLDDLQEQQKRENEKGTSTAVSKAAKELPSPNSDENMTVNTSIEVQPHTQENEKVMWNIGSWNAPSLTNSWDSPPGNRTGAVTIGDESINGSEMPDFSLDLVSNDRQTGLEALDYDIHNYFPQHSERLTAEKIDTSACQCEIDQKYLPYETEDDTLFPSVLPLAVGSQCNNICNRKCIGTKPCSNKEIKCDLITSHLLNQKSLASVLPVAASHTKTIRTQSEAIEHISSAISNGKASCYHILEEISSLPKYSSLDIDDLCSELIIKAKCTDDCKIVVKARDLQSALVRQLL
Summary of the method: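 Each ungapped eight-base word and its reverse complement, pooled, received an E-score from the Universal PBM Analysis Suite. Underlying scans, normalised with masliner, recorded fluorescent anti-GST bound to GST-tagged yeast transcription factors. These were applied at about 100-200 nM to universal all-10-mer Agilent arrays double-stranded by primer extension.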

Q: For CATCGGCC, which “PBM E-score” value is on record?
A: -0.0158

Q: Which “PBM E-score” value does the source give for CATATTGC here?
A: -0.116

Q: Which “PBM E-score” value does the source give for GAAGCAGC here?
A: -0.19

Q: AGGTAGCC was tested. Which “PBM E-score” value did it give?
A: 0.00072

Q: ATGCAAGC was tested. Which “PBM E-score” value did it give?
A: 0.00976

Q: AAGTAGTG was tested. Which “PBM E-score” value did it give?
A: -0.109

Q: For ATTGTTGA, which “PBM E-score” value is on record?
A: 0.125

Q: With ATAACACA as the sequence, how does the “PBM E-score” value read?
A: 0.149

Q: CTGGCAAC was tested. Which “PBM E-score” value did it give?
A: 0.00154

Q: For AGTCAGAA, which “PBM E-score” value is on record?
A: -0.0213

Q: For TATCTAGA, which “PBM E-score” value is on record?
A: -0.0529

Q: Which “PBM E-score” value does the source give for GGTAGCAA here?
A: -0.0853

Q: How did the “PBM E-score” value turn out when AGTTAGAC was run?
A: 0.0452

Q: ATAGATCA was tested. Which “PBM E-score” value did it give?
A: 0.167

Q: AGAGCTAA was tested. Which “PBM E-score” value did it give?
A: -0.185

Q: For ACGAAGAG, which “PBM E-score” value is on record?
A: -0.0102

Q: How did the “PBM E-score” value turn out when ACCCAACA was run?
A: -0.141

Q: Which “PBM E-score” value does the source give for CTTGATTC here?
A: 0.0981

Q: CCGGATGC was tested. Which “PBM E-score” value did it give?
A: -0.114

Q: AAGGAGAA was tested. Which “PBM E-score” value did it give?
A: -0.124

Q: For ATAGTTGA, which “PBM E-score” value is on record?
A: 0.134

Q: For ATACTCTG, which “PBM E-score” value is on record?
A: 0.0457

Q: How did the “PBM E-score” value turn out when CTTGAGTA was run?
A: -0.134

Q: How did the “PBM E-score” value turn out when ACAGAAGG was run?
A: -0.17

Q: Which “PBM E-score” value does the source give for CTAGTAAG here?
A: 0.203

Q: Which “PBM E-score” value does the source give for ATCTAATC here?
A: 0.159

Q: For CAGGCAGC, which “PBM E-score” value is on record?
A: -0.0777

Q: How did the “PBM E-score” value turn out when AGATCATC was run?
A: 0.0574

Q: Which “PBM E-score” value does the source give for ACGCTACT here?
A: -0.0733

Q: With ATTTATAA as the sequence, how does the “PBM E-score” value read?
A: 0.341

Q: CCAATTAG was tested. Which “PBM E-score” value did it give?
A: 0.223

Q: For ATGGGACC, which “PBM E-score” value is on record?
A: -0.00547

Q: With CCAGACTA as the sequence, how does the “PBM E-score” value read?
A: 0.0923

Q: How did the “PBM E-score” value turn out when CCCCCCAC was run?
A: -0.455

Q: Which “PBM E-score” value does the source give for TACATGTA here?
A: 0.27

Q: How did the “PBM E-score” value turn out when AGTAACAC was run?
A: 0.141

Q: How did the “PBM E-score” value turn out when CTCGGGAA was run?
A: -0.00746

Q: With CTAGCGCA as the sequence, how does the “PBM E-score” value read?
A: 0.0505

Q: For GGTGCCTA, which “PBM E-score” value is on record?
A: -0.0171

Q: Which “PBM E-score” value does the source give for CAATACAA here?
A: 0.0733

Q: For CACATTTC, which “PBM E-score” value is on record?
A: 0.142

Q: How did the “PBM E-score” value turn out when CAGAGCTA was run?
A: -0.252

Q: How did the “PBM E-score” value turn out when AAAAGATT was run?
A: 0.0172

Q: CGCACAAG was tested. Which “PBM E-score” value did it give?
A: 0.0424

Q: CGGGTACG was tested. Which “PBM E-score” value did it give?
A: -0.17

Q: How did the “PBM E-score” value turn out when CTTAGCCA was run?
A: -0.024

Q: Which “PBM E-score” value does the source give for CTCAGTGC here?
A: 0.0558

Q: With CAGGGAGC as the sequence, how does the “PBM E-score” value read?
A: -0.239

Q: CATAACTA was tested. Which “PBM E-score” value did it give?
A: -0.00461

Q: With GAGGAGAA as the sequence, how does the “PBM E-score” value read?
A: -0.0942

Q: Which “PBM E-score” value does the source give for ACATCCAA here?
A: -0.114

Q: Which “PBM E-score” value does the source give for GTCCTCCA here?
A: -0.1

Q: GTTTATTA was tested. Which “PBM E-score” value did it give?
A: 0.293

Q: Which “PBM E-score” value does the source give for ACGGCACA here?
A: -0.114

Q: Which “PBM E-score” value does the source give for AACGGACT here?
A: -0.0248

Q: How did the “PBM E-score” value turn out when CCTAGGAG was run?
A: -0.104

Q: With TAATAGTA as the sequence, how does the “PBM E-score” value read?
A: 0.175

Q: For ATCGGAAG, which “PBM E-score” value is on record?
A: -0.0563

Q: How did the “PBM E-score” value turn out when GGGCGGAA was run?
A: 0.0225

Q: GGATGAAC was tested. Which “PBM E-score” value did it give?
A: 0.0496

Q: How did the “PBM E-score” value turn out when CCGATCAA was run?
A: -0.0815

Q: How did the “PBM E-score” value turn out when ACCAAGCG was run?
A: -0.00622

Q: For CCCTAAAA, which “PBM E-score” value is on record?
A: -0.228

Q: With GTCGGCCA as the sequence, how does the “PBM E-score” value read?
A: -0.264

Q: For TACGATGA, which “PBM E-score” value is on record?
A: 0.00075

Q: Which “PBM E-score” value does the source give for ACCCTACC here?
A: -0.0642

Q: CTTGTGCA was tested. Which “PBM E-score” value did it give?
A: -0.0115

Q: For AGAGCGTA, which “PBM E-score” value is on record?
A: -0.0972

Q: Which “PBM E-score” value does the source give for CCTGTAGC here?
A: -0.149

Q: With GCCTTAAC as the sequence, how does the “PBM E-score” value read?
A: -0.087

Q: How did the “PBM E-score” value turn out when CTCTGGGC was run?
A: -0.162

Q: For CGAGGCGC, which “PBM E-score” value is on record?
A: 0.108

Q: With AACACCGG as the sequence, how does the “PBM E-score” value read?
A: 0.0782

Q: How did the “PBM E-score” value turn out when AACCGGGG was run?
A: -0.245

Q: AGGGGTAA was tested. Which “PBM E-score” value did it give?
A: -0.068

Q: Which “PBM E-score” value does the source give for AGTGAGCA here?
A: -0.0577

Q: ATCGAGAG was tested. Which “PBM E-score” value did it give?
A: -0.0825

Q: CGACGCGC was tested. Which “PBM E-score” value did it give?
A: 0.142

Q: How did the “PBM E-score” value turn out when CGAACCGC was run?
A: -0.0247

Q: With TATCATAA as the sequence, how does the “PBM E-score” value read?
A: 0.172

Q: AATGACGC was tested. Which “PBM E-score” value did it give?
A: -0.0439

Q: With GACGCGCA as the sequence, how does the “PBM E-score” value read?
A: 0.0756

Q: For ACTATTTC, which “PBM E-score” value is on record?
A: 0.174

Q: With ACCCCCCG as the sequence, how does the “PBM E-score” value read?
A: -0.446

Q: With GACTAGTA as the sequence, how does the “PBM E-score” value read?
A: -0.117

Q: ATTTATTA was tested. Which “PBM E-score” value did it give?
A: 0.186

Q: How did the “PBM E-score” value turn out when TTTGAAAA was run?
A: 0.161

Q: For AATCAGAA, which “PBM E-score” value is on record?
A: -0.0255

Q: AATTTGAG was tested. Which “PBM E-score” value did it give?
A: 0.035

Q: How did the “PBM E-score” value turn out when ATCTCCAT was run?
A: -0.123

Q: Which “PBM E-score” value does the source give for GGACTGAC here?
A: -0.103

Q: Which “PBM E-score” value does the source give for GGCCAGCC here?
A: -0.161

Q: CACTGTCG was tested. Which “PBM E-score” value did it give?
A: -0.21

Q: With ACAAGCTC as the sequence, how does the “PBM E-score” value read?
A: -0.108
